Data on two substances can be found in publication PMC5577305.

Protein sequences, listed by entry. Tags and fused reporters are not part of them. Lines headed by an entry give the natural chain unless they say otherwise; changes in a name come on top. Chains listed by the source or under a name are the forms on record and can include a tag or linker.
ΔF508-CFTR containing a C-terminal HA-tag (P13569, form named): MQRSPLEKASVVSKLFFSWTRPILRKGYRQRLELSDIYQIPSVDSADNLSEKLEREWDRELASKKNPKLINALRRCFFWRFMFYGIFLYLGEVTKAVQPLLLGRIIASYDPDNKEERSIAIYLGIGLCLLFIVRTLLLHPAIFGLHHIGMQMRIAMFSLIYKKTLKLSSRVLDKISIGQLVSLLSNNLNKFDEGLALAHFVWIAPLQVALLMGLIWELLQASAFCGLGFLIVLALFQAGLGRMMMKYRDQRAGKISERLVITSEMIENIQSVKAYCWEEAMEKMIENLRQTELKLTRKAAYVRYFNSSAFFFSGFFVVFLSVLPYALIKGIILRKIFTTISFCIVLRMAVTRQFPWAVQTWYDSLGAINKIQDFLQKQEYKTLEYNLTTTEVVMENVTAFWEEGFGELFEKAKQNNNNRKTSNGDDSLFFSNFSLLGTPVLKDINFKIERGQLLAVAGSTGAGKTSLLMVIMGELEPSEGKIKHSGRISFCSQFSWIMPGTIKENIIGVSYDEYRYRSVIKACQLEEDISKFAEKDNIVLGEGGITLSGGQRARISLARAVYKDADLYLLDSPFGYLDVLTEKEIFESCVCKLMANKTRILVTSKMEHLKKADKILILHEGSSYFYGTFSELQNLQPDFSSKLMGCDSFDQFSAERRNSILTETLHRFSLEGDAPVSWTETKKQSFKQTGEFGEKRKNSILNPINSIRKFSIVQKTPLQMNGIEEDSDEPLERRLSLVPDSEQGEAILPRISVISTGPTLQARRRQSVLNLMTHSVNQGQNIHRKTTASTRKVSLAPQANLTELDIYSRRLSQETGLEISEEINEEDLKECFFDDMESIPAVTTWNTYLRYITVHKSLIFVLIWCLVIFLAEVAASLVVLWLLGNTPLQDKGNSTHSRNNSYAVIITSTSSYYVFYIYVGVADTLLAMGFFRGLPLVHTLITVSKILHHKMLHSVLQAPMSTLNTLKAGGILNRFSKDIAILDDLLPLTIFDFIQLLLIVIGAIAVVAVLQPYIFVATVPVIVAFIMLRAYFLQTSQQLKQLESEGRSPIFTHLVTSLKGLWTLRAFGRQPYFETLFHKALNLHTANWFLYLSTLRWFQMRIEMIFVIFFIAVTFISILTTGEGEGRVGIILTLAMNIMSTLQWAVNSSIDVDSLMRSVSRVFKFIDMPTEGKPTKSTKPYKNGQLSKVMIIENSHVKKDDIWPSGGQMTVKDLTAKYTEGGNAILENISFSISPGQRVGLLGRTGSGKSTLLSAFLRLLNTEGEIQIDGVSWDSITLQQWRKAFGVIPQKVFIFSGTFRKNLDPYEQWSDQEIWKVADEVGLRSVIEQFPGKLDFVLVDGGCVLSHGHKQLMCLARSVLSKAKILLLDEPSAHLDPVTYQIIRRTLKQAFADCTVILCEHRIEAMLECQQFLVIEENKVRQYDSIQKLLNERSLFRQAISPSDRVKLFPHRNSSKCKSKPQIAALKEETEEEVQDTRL
UniProt G3HD21: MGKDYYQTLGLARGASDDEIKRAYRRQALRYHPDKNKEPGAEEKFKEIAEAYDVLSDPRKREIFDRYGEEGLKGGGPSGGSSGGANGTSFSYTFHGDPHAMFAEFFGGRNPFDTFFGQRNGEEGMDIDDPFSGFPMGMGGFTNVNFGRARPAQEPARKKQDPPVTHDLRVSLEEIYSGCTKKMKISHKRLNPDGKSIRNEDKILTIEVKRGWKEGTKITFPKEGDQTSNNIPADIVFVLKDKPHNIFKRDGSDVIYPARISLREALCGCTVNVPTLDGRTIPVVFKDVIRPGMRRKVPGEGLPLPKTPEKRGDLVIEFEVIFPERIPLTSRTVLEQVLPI
UniProt P19378: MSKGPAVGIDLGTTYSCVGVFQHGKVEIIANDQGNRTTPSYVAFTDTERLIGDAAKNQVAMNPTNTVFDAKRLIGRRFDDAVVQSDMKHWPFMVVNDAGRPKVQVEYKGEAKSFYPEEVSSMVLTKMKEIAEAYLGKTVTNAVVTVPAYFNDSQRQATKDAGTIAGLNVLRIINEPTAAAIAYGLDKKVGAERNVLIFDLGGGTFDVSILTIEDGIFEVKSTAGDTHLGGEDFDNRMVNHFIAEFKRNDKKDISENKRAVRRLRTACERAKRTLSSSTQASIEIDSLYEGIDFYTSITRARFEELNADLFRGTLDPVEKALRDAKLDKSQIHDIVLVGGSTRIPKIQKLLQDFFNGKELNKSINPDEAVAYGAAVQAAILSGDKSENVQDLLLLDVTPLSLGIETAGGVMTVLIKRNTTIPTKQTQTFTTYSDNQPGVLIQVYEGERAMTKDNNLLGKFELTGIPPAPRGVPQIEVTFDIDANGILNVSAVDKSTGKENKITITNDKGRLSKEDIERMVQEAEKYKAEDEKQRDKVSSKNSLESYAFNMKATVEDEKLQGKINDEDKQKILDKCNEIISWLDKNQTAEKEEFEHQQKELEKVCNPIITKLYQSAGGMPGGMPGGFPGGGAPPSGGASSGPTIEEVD

Results are given in words; binding and its absence hold for the method and conditions named. In cells and extracts the contact can be indirect. Some entries that bind do so weakly or less than the wild type.

Assay [1] has as its target ΔF508-CFTR containing a C-terminal HA-tag (UniProt P13569). The experiment in a line: co-IP; cells cross-linked with 0.1 mM dithiobis[succinimidyl propionate] (DSP) after cycloheximide chase (2.5 h, 26 or 37 °C); CFTR-HA precipitated with anti-HA antibody from BHK-21 lysate; DSP reduced with 100 mM DTT before SDS-PAGE; blot for co-chaperones.
Assay [2] has the same target. The experiment in a line: co-IP; CFTR-HA precipitated with anti-HA antibody and protein G beads from ~5 mg BHK-21 lysate (150 mM NaCl, 20 mM Tris, 0.1% NP-40, pH 7.4), 4 °C; IP probed for Hsc70/Hsp90; cells rescued at 26 °C, then cycloheximide chase at 26 °C or 37 °C; IP without or with 2 mM ATP plus 1 mM MgCl2 or 150 U/ml apyrase.

Take Hdj1 (from UniProt G3HD21 1-340): the binding entry in assay [1] is reported as “binds”. Take “Hsc70 (HSPA8) (from UniProt P19378 1-646)”: the binding result in assay [2] is given as “binds”.
